The values below come from publication PMC10626665.

By UniProt entry, the sequences of proteins in these tests, tags left out.
UniProt P46940: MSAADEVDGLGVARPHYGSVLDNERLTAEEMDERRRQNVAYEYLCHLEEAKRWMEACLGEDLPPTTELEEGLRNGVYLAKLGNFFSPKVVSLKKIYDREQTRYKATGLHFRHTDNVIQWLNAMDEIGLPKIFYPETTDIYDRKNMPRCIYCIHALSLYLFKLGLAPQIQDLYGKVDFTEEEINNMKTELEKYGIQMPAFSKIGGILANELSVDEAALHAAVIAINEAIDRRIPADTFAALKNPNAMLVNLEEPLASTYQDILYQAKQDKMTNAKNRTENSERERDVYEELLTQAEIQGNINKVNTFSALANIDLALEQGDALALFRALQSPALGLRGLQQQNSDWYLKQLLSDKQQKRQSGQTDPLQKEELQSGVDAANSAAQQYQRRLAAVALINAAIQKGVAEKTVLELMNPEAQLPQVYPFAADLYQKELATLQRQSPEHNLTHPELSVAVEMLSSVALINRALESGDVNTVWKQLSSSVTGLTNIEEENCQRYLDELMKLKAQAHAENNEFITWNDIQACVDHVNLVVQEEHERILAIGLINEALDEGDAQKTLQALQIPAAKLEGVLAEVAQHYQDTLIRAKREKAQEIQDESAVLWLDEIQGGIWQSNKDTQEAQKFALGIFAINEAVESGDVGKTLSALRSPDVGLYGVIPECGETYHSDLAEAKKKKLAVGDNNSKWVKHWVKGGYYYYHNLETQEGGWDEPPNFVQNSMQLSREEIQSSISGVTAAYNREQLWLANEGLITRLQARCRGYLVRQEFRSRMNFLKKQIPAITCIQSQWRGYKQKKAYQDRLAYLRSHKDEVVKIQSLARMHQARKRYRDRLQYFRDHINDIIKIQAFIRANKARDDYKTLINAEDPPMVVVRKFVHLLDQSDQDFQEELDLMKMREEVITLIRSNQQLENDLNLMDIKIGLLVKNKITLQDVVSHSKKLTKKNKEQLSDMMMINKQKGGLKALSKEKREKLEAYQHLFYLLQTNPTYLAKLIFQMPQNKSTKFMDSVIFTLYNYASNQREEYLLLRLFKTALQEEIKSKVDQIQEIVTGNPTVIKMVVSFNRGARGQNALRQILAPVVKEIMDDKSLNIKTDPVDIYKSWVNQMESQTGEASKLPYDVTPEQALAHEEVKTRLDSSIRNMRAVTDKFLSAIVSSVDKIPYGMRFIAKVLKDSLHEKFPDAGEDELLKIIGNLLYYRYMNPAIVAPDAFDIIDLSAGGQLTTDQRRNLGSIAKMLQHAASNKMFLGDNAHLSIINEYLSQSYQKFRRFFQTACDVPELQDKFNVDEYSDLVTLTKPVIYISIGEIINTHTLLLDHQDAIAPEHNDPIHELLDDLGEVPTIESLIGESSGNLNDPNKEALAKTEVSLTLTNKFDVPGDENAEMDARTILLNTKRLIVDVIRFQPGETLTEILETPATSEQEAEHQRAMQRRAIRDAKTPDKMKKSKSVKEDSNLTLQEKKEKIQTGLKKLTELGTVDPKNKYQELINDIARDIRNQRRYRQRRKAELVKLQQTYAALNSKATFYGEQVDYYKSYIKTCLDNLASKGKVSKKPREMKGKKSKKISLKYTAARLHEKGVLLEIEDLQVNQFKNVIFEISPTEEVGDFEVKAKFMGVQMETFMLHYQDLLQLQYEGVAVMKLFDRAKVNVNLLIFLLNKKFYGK

In the assay the target is T1, MYL9 (human (endogenous in primary CAFs)) (UniProt P24844).
T1 sequence: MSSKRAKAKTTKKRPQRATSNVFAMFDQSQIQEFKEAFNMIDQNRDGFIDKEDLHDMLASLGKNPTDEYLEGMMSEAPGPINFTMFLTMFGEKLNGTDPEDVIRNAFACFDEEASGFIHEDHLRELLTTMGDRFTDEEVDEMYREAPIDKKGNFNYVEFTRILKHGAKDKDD
The assay is described as follows: co-IP; target antibody and Protein A + G agarose added to the supernatant of a RIPA lysate, overnight at 4 C; which protein was precipitated not given.

Results are given in words; binding and its absence hold for the method and conditions named. In cells and extracts the contact can be indirect. Some binding calls cover weakened binding; strength is not graded here.

In the case of IQGAP1 (from UniProt P46940 1-1657), the binding entry is given as “binds”.
